Test results reported in PubChem BioAssay AID588497 (NMMLSC, 2011).
Values joined by “and” are separate entries in the source; they are usually repeats but may differ in a detail not shown here. Identical values can stand only once. About 780 (0.22%) of roughly 360,000 compounds were called active. Inconclusive means that the source gave no clear call. Such entries were picked first, then a sample of the others. Rule as the data show it: active = inhibition above about 35% (passing the limit was not always enough); inconclusive = no clear call, values can overlap the other calls.

These molecules were tested on Botulinum neurotoxin type F light chain protease (Clostridium botulinum) (assay: BoNT/F light chain protease inhibitors, primary screen, biochemical, flow cytometry, MLPCN library (AID 588497; also: plate controls were buffer without enzyme for full effect and enzyme alone for no effect)). Settings: Multiplex microsphere protease cleavage assay, at 10 µM, hits give high values.

SMILES | inhibition
COc1ccc(NC(=O)COCC(=O)Nc2ccc(C)cc2)cc1 | inconclusive: -29.9%
COc1ccc(OC)c(-c2nn(-c3ccccc3)cc2C(=O)NCC(c2cccs2)N2CCOCC2)c1 (stereo unspecified) | inconclusive: -8.4%
O=C(NCc1ccc(Cl)cc1)C1CCCCN1S(=O)(=O)c1ccccc1 (stereo unspecified) | inactive: -2%
COc1ccc2ccccc2c1/C=N/NC(=O)c1cccc(C)c1 | inconclusive: -5.6%
O=C(Nc1cccc2nsnc12)C1CC(=O)N(c2ccccc2)C1 (stereo unspecified) | inconclusive: -21.8%
Cc1ccc2nc(-c3cccc(SC4CCCCC4)c3)c(NC3CCCCC3)n2c1 | inactive: -3.5% and inactive: -7.8%
CC(C)Cn1c(=O)c2c(nc3n2CCS3)n(C)c1=O | inconclusive: -11.2%
CCCCN(C)c1c(C)nc2ccc(C(=O)NCCCn3ccnc3)cn12 | inactive: -1.4%
CCN(CC)CCCn1c(SCC(=O)NCC2CCCO2)nc2ccccc2c1=O (stereo unspecified) | inactive: 7.9%
COc1ccc(CCN2C(=O)CC(N3CCC(C(N)=O)CC3)C2=O)cc1OC (stereo unspecified) | inconclusive: -46.7%
C=C1CC(C)OC(c2ccccc2OCC(O)CN2CCCCC2)C1 (stereo unspecified) | inactive: -3.9%
CC1(/[N+]([O-])=C\c2ccccc2F)CCCCC1=O (stereo unspecified) | inconclusive: -47%
COC(=O)C(Cc1csc2ccc(Cl)cc12)NC(=O)c1ccc(Cl)cc1 (stereo unspecified) | inconclusive: -3.1%
O=S(=O)(NCc1csc(-c2cccs2)n1)c1cccs1 | inconclusive: 45.2%
Cc1cc(C)cc(N(C(C)C(=O)N2CCCC2)S(C)(=O)=O)c1 (stereo unspecified) | inconclusive: 8.7%
CC(C(=O)NCCCn1ccnc1)(c1ccccc1)c1ccccc1 | inconclusive: -6.9%
CC1(C)CC(NC(=O)c2cccc(F)c2)CC(C)(C)N1 | inconclusive: 5.3%
CC(=O)NCCc1c(C)n(Cc2ccccc2)c2ccccc12 | inconclusive: -8.9%
O=C(CCN1CCCC1)Nc1ccc(Br)cc1 | inconclusive: 11.2%
CN(C(=O)c1cccc(NC(=O)c2ccco2)c1)c1ccccc1 | inactive: -37%
Cc1ccc(F)cc1NC(=O)N1CCCN(c2ccc(C(F)(F)F)cn2)CC1 | inconclusive: 5%
COc1ccc(/C=N/NC(=O)c2ccc3nc[nH]c3c2)cc1OC | inconclusive: -32%
COc1ccc2occ(C(=O)c3ccc(N)cc3)c2c1 | inconclusive: -4.7%
O=C1CCCC/C1=C/Nc1ccc2c(c1)OCO2 | inactive: -1.8%
Cc1ccc(Cn2ccc(NC(=O)c3cc(-c4ccc(Br)cc4)on3)n2)cc1 | inactive: -4.9%
NC(=NC(=O)c1ccc(OC(F)(F)F)cc1)c1ccc(C(F)(F)F)cn1 | inconclusive: 28.4%
